Results published in the supplement of paper PMC9233669.
Variants at the background level are over-represented here.

Tests used:
biotinyl-Ile-oxazolone = test: self-aminoacylation, catalytic enhancement (BIO) (fold over background); higher = more active; k-Seq, kA / k0A0; sequences stand for … in GGGAAUGGAUCCACAUCUACGAAUUC…UUCACUGCAGACUUGACGAAGCUG
How it was run: (§1)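 Working in 50 μL HEPES/NaCl/KCl/MgCl2/CaCl2 buffer with 5% acetonitrile at pH 6.9–7.0, mutagenized RNA pools (0.43 μM; 21-nt variable region) were reacted with 2–1250 μM of each biotinyl-aminoacyl-oxazolone for 90 minutes at room temperature. Streptavidin capture followed, with quantification by triplicate qPCR and Illumina sequencing. Catalytic enhancement is reported as median kA over the uncatalyzed rate, the low-activity peak of a bimodal Gaussian fit to the data.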

biotinyl-Val-oxazolone = test: self-aminoacylation, catalytic enhancement (BVO) (fold over background); higher = more active; k-Seq, kA / k0A0; sequences stand for … in GGGAAUGGAUCCACAUCUACGAAUUC…UUCACUGCAGACUUGACGAAGCUG
How it was run: as §1

biotinyl-Leu-oxazolone = test: self-aminoacylation, catalytic enhancement (BLO) (fold over background); higher = more active; k-Seq, kA / k0A0; sequences stand for … in GGGAAUGGAUCCACAUCUACGAAUUC…UUCACUGCAGACUUGACGAAGCUG
How it was run: as §1

biotinyl-Met-oxazolone = test: self-aminoacylation, catalytic enhancement (BMO) (fold over background); higher = more active; k-Seq, kA / k0A0; sequences stand for … in GGGAAUGGAUCCACAUCUACGAAUUC…UUCACUGCAGACUUGACGAAGCUG
How it was run: as §1

Row | Sequence | self-aminoacylation (biotinyl-Ile-oxazolone) | self-aminoacylation (biotinyl-Val-oxazolone) | self-aminoacylation (biotinyl-Leu-oxazolone) | self-aminoacylation (biotinyl-Met-oxazolone)
1 | AACUUUGCUAAUGGUCGCAAG [Fam3.1 aminoacylation ribozyme variant] | 2.47 | – | – | –
2 | AAGAAUGCUAAUAGUCGCAAG [Fam3.1 aminoacylation ribozyme variant] | 1.89 | 1.4 | 1.34 | –
3 | AAGAUUGCUAAUGGUCGCAAG [Fam3.1 aminoacylation ribozyme variant] | 1.21 | – | – | –
4 | AAGUUCGCCAAUAGUCGCAAG [Fam3.1 aminoacylation ribozyme variant] | – | 1.76 | – | –
5 | AAGUUUGCCAAUAGUCGCAGG [Fam3.1 aminoacylation ribozyme variant] | 1.94 | – | – | –
6 | AAGUUUGCUAAUAGACGCGAG [Fam3.1 aminoacylation ribozyme variant] | 0.793 | 0.64 | – | 0.912
7 | AAGUUUGCUAAUAGUCGCGUG [Fam3.1 aminoacylation ribozyme variant] | 1.82 | 1.87 | – | –
8 | AAGUUUGCUCAUAGUGGCAAG [Fam3.1 aminoacylation ribozyme variant] | 0.71 | 0.774 | – | 0.618
9 | ACCUUUGCUAAUAGUCGCAAG [Fam3.1 aminoacylation ribozyme variant] | 1.89 | 1.49 | – | 1.97
10 | ACGUCUGCUAAUAGUCGCAAG [Fam3.1 aminoacylation ribozyme variant] | – | 1.81 | 1.57 | –
11 | ACGUUUGCUAAAAGUCGCAAG [Fam3.1 aminoacylation ribozyme variant] | 1.61 | 1.78 | 1.58 | –
12 | ACUACCCUGGUCAUCGAGGGA [Fam2.1 aminoacylation ribozyme variant] | – | 1.84 | – | –
13 | AGGUUUGCUAAUAGUCGUAAG [Fam3.1 aminoacylation ribozyme variant] | 1.22 | 1.08 | – | 1.23
14 | AGUCACCUAGGUCAUCUGGUG [Fam2.2 aminoacylation ribozyme variant] | 1.91 | 1.57 | – | –
15 | AUAACCCUGGUCAUCGAGUAA [Fam2.1 aminoacylation ribozyme variant] | 1.95 | 1.77 | – | –
16 | AUCACCCUGGUCAUCGAGGGA [Fam2.1 aminoacylation ribozyme variant] | 1.47 | – | – | –
17 | AUCCACCUAGGUCCUCGGGUG [Fam2.2 aminoacylation ribozyme variant] | 3.76 | 4.71 | – | 6.2
18 | AUGCACCUAGGUCAUCGAGUG [Fam2.2 aminoacylation ribozyme variant] | 2.61 | 2.56 | – | –
19 | AUUACCCUCGUCAUGGAGUGA [Fam2.1 aminoacylation ribozyme variant] | 1.84 | 1.84 | – | –

Row | Sequence | self-aminoacylation (biotinyl-Ile-oxazolone) | self-aminoacylation (biotinyl-Val-oxazolone) | self-aminoacylation (biotinyl-Leu-oxazolone) | self-aminoacylation (biotinyl-Met-oxazolone)
20 | AUUACCCUGGACAUCAAGUGA [Fam2.1 aminoacylation ribozyme variant] | 1.38 | 1.85 | – | –
21 | AUUACCCUGGUAAUCGUGUGA [Fam2.1 aminoacylation ribozyme variant] | 1.69 | 1.85 | – | –
22 | AUUACGCUCGUCAUCGAGUGA [Fam2.1 aminoacylation ribozyme variant] | 1.65 | 1.69 | – | –
23 | AUUACGCUGGUCAUCAAGUGA [Fam2.1 aminoacylation ribozyme variant] | 1.84 | 1.8 | – | 2.63
24 | AUUACUCUGGUCAUCAAGUGA [Fam2.1 aminoacylation ribozyme variant] | 1.69 | 1.64 | – | –
25 | AUUCACAUACGUCAUCGGGUG [Fam2.2 aminoacylation ribozyme variant] | 4.62 | 4.19 | – | 7.22
26 | AUUCACCAAGGUCAUCGGAUG [Fam2.2 aminoacylation ribozyme variant] | 1.09 | 1.17 | – | –
27 | AUUCACCCAGGUCAUAGGGUG [Fam2.2 aminoacylation ribozyme variant] | 1.54 | 1.61 | – | 1.66
28 | AUUCACCUAGGUCAUCUGCUG [Fam2.2 aminoacylation ribozyme variant] | 0.819 | 0.81 | – | 0.724
29 | AUUCACCUAGGUUAUCGGGGG [Fam2.2 aminoacylation ribozyme variant] | 1.85 | – | – | 1.59
30 | AUUCACCUAGUUCAUCCGGUG [Fam2.2 aminoacylation ribozyme variant] | 3.1 | 2.52 | – | –
31 | AUUCACUUAGGUCAGCGGGUG [Fam2.2 aminoacylation ribozyme variant] | – | 1.98 | – | –
32 | AUUCGCCUAGGUCAUCGAGUG [Fam2.2 aminoacylation ribozyme variant] | 8.77 | 7.39 | – | –
33 | AUUUCCCUGGUCAUCGAAUGA [Fam2.1 aminoacylation ribozyme variant] | 1.09 | 1.12 | – | –
34 | AUUUCCCUGGUCAUCGUGUGA [Fam2.1 aminoacylation ribozyme variant] | 1.82 | 1.97 | – | –
35 | CAACUUCAAACAAGCGGUCUG [Fam1A.1 aminoacylation ribozyme variant] | 1.42 | 1 | – | 1.24
36 | CAACUUCAAACAAUCGGUCUU [Fam1A.1 aminoacylation ribozyme variant] | 1.59 | 1.5 | – | –
37 | CAGCUUCAAACAAUCGGUCUG [Fam1A.1 aminoacylation ribozyme variant] | 1.47 | 1.38 | – | 1.32
38 | CCACGCUUCAAGCAAUCCGUC [Fam1B.1 aminoacylation ribozyme variant] | 0.754 | 1.1 | – | 0.507

Row | Sequence | self-aminoacylation (biotinyl-Ile-oxazolone) | self-aminoacylation (biotinyl-Val-oxazolone) | self-aminoacylation (biotinyl-Leu-oxazolone) | self-aminoacylation (biotinyl-Met-oxazolone)
39 | CCAUGCUUCAAGCAAUCGGUC [Fam1B.1 aminoacylation ribozyme variant] | 1.34 | 1.4 | – | 1.54
40 | CCCCACUUCAAGCAGUCGGUC [Fam1B.1 aminoacylation ribozyme variant] | 1.9 | – | – | 1.77
41 | CCCCGCUUCAAGCAAUCGGUC [Fam1B.1 aminoacylation ribozyme variant] | 1.96 | – | – | –
42 | CCGCACUUCAAGCAAUCGGUC [Fam1B.1 aminoacylation ribozyme variant] | 1.3 | 1.69 | – | 1.37
43 | CCGCACUUCAAGCAAUCGGUU [Fam1B.1 aminoacylation ribozyme variant] | 1.96 | – | – | 1.92
44 | CCGCCCUUCAAGCAAUCGGUC [Fam1B.1 aminoacylation ribozyme variant] | 1.51 | – | – | 1.43
45 | CCUCUUCAAACAAUCGGUCUG [Fam1A.1 aminoacylation ribozyme variant] | 1.33 | 1.2 | – | 1.65
46 | CGUCUUCAAACAAUCGGUCUG [Fam1A.1 aminoacylation ribozyme variant] | 1.32 | 1.42 | – | 1.62
47 | CUACUUCAAACAAUCGCUCCG [Fam1A.1 aminoacylation ribozyme variant] | 0.768 | 0.926 | – | –
48 | CUACUUCAAGCAAUCGGUCUU [Fam1A.1 aminoacylation ribozyme variant] | 1.07 | 1.06 | – | 0.87
49 | CUUCACCUAGAUCAUCGGGUG [Fam2.2 aminoacylation ribozyme variant] | 1.54 | – | – | –
50 | CUUCUUCAAACAACCGGUCUG [Fam1A.1 aminoacylation ribozyme variant] | 1.11 | 0.949 | – | –
51 | GAGUUGGCUAAUAGUCGCAAG [Fam3.1 aminoacylation ribozyme variant] | – | – | 1.69 | –
52 | GUUCACCUAGGUCAACGGGUG [Fam2.2 aminoacylation ribozyme variant] | 1.94 | 1.89 | – | –
53 | UAGUUUGCUAAUAGUCGCUAG [Fam3.1 aminoacylation ribozyme variant] | 1.18 | 1.13 | – | 1.01
54 | UCAGACUUCAAGCAAUCGGUC [Fam1B.1 aminoacylation ribozyme variant] | 1.59 | 1.74 | – | 1.9
55 | UUACUUCAAACAAUCGGUCGG [Fam1A.1 aminoacylation ribozyme variant] | 1.47 | 1.43 | – | 1.53
56 | UUUCACCUAGGUAAUCGGGUG [Fam2.2 aminoacylation ribozyme variant] | – | 1.98 | – | –
57 | UUUCACCUAGGUCUUCGGGUG [Fam2.2 aminoacylation ribozyme variant] | 4.04 | 4.51 | – | 4.63
